A: 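Protease assay of ClpP1P2, read by the AMC dye that it sets free. Target: ClpP1P2, Mycobacterium tuberculosis (UniProt P9WPC5 and UniProt P9WPC3). Tested at 50 µM. Direction is inferred from only a few compounds that gave an IC50; most scored high, so higher reads as stronger inhibition. Most other retested compounds had strongly negative values. Of about 69,000 compounds tested this way, about 10 (0.015%) reached 50% or more in at least one test.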
B: 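Coenzyme A biosynthesis protein CoaBC, Mycobacterium tuberculosis (UniProt P9WNZ1). Enzyme assay of CoaBC with a phosphate dye (Biomol Green) read at 650 nm. Tested at 30 µM. Direction is inferred from only a few compounds that gave an IC50; most scored high, so higher reads as stronger inhibition. Most strong results did not repeat in a second test. Of about 67,000 compounds tested this way, about 40 (0.06%) reached 50% or more in at least one test.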

Amino acid sequences for entries named in this document (tags omitted).
UniProt P9WPC5, whole entry: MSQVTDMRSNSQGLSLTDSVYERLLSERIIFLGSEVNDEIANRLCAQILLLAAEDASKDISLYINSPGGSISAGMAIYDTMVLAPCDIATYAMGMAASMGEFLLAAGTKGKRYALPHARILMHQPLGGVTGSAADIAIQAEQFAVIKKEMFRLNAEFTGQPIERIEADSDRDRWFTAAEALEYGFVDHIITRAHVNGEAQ
UniProt P9WPC3, whole entry partner: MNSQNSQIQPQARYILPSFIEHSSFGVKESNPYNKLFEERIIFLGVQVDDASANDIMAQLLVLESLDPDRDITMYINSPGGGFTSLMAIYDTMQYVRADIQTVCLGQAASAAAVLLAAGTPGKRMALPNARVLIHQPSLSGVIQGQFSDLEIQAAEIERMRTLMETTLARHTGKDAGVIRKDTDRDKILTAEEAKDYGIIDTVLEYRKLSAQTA
UniProt P9WNZ1, whole entry: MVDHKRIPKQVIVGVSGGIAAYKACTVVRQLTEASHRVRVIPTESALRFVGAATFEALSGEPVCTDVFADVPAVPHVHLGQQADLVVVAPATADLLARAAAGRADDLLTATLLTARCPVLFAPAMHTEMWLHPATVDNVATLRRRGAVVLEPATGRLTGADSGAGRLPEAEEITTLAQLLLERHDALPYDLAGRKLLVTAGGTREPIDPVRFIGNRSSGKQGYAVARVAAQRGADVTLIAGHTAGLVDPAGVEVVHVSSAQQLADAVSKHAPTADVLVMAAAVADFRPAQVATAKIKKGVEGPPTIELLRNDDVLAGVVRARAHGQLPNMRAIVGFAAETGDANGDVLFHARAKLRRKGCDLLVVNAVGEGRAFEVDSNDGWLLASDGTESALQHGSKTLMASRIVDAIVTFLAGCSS

Each number is a percent effect as filed. The controls that fix the scale are not given in the record; negative values are as filed. Compounds were drawn at random from those tested, without regard to their results.

CSCCC(=O)N1CCC(c2nccn2CCN(C)C)CC1 gave A: -4.936%; B: 2.372%. Clc1ccccc1-c1nnc(CNCCn2cccn2)o1 read A: -28.16%; B: 1.575%. COC(=O)CCn1ccc(=O)c2ccccc21 gave A: 12.14%; B: -1.503%. For CC(C)CNC(=O)[C@H]1C[C@@H]2CN(C(=O)NCC3CCCCC3)C[C@H]1O2 the result was A: -1.19%. With CC1c2ncc(COc3cccnc3)n2CCN1C(=O)C1=CCCC1 (configuration not stated) the screen gave A: 6.2%; B: -0.4038%. For CN(C)c1ccc(NC(=O)N2CCCCCC2c2ccncc2)cn1 (configuration not stated) the result was A: -5.239%; B: 6.818%.

For CCc1nc(C)c(C(=O)NCCNc2ncnc3sccc23)s1 the result was A: -0.999%; B: 5.732%. CC(C)N1CCC2(CC1)NC(=O)c1cc(Br)ccc1-n1nnnc12 gave A: -5.515%; B: 0.4673%. COc1cc(NC(=O)NCC2CCCO2)cc(OC)c1OC (configuration not stated) gave A: -2.025%; B: -11.6%. For CCC(O)CN1CCN(C(=O)c2cccn2Cc2cccnc2)CC1 (configuration not stated) the result was A: -15.04%; B: 1.818%. With CN(C)c1cncc(C2CCN(C(=O)CO)CC2)n1 the screen gave A: -2.711%; B: -1.944%. With CS(=O)(=O)N[C@H]1CN(C(=O)c2cscn2)[C@@H]2CCCO[C@H]12 the screen gave A: 5.062%; B: 0.2028%.

For CC(C)c1ncc(CN2C[C@@H](CN3CCCN(C)CC3)[C@@H](CO)C2)cn1 the result was A: 8.382%; B: -34.88%. COCCN1C[C@@H]2CN(Cc3ccsc3)CCC[C@]2(C(=O)O)C1 read A: -4.771%; B: -0.1267%. For CCN1CCn2c(-c3cccc(F)c3)cnc2C12CCN(C(C)=O)CC2 the result was A: -6.168%; B: 1.091%. Cn1cc(CC(=O)N2CCCC(c3ccn[nH]3)C2)cn1 (configuration not stated) read A: -4.106%; B: -22.07%. With COCCC(=O)N1C[C@@H]2COC[C@]2(COCc2cccnc2)C1 the screen gave A: -10.26%; B: 0.3802%. Result for CC1CCCN(C(=O)C2CCN(c3snc4ccccc34)CC2)C1 (configuration not stated) was A: 1.502%; B: 8.015%.

CCn1cc(CNC(=O)CCn2ncc3c(Cl)cccc32)cn1 gave A: 12.75%; B: -7.159%. For OC(CNc1nc(C2CCCC2)nc2c1CCNCC2)C(F)(F)F (configuration not stated) the result was A: -1.01%; B: -43.02%. Cc1cc(C(=O)N2CCc3ncc(CN4CCCCC4)n3CC2)no1 gave A: 7.734%; B: 0.2463%. Cc1ccc(CN2CCC3(CC(=O)N(c4ccc5c(c4)OCO5)C3)C2)o1 (configuration not stated) read A: -2.817%; B: 2.941%. For Cn1ccnc1CN1CCCN(C(=O)c2ccc(Cl)o2)CC1 the result was A: -2.381%; B: 7.846%. With CC(C)c1nn(C)cc1CNCc1cccnc1N(C)C the screen gave A: 6.412%; B: 1.146%.

For CN(Cc1ccc(F)c(F)c1)C(=O)CCc1nc(-c2nnc[nH]2)no1 the result was A: 1.404%; B: 5.645%.

For reference, 3 entries once more:

With COC(=O)CCn1ccc(=O)c2ccccc21 the screen gave A: 12.14%; B: -1.503%.
With CCC(O)CN1CCN(C(=O)c2cccn2Cc2cccnc2)CC1 (configuration not stated) the screen gave A: -15.04%; B: 1.818%.
With COCCN1C[C@@H]2CN(Cc3ccsc3)CCC[C@]2(C(=O)O)C1 the screen gave A: -4.771%; B: -0.1267%.

Measurements from “University of Dundee, Small-Polar-MMV Screening Library” (2021), ChEMBL document CHEMBL3988442.